No constants are given. Whether binding was seen depends on the method and setting. In cells and extracts the contact can be indirect. Binding can be weak; no strength is given. For some of these results: Tags and fused reporters may be left off the sequences shown.

Holding throughout (assay): co-IP
Assay [1] concerns the target T1, DsRed2-CCDC47ΔCC^MYC (human) (UniProt Q96A33).
T1 sequence: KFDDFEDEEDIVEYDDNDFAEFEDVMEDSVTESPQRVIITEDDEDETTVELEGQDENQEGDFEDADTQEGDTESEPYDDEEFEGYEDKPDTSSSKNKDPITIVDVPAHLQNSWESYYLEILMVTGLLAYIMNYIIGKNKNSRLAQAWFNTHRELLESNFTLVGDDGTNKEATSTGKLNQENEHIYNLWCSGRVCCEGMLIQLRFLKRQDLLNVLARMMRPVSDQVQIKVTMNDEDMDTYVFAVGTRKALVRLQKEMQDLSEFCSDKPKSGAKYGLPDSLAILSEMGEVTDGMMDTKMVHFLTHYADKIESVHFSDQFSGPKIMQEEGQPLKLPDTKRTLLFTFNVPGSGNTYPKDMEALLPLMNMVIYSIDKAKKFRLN

In assay [2] the target is T2, DsRed2-CCDC47_(ΔG+ΔCC)^MYC (human) (UniProt Q96A33).
T2 sequence: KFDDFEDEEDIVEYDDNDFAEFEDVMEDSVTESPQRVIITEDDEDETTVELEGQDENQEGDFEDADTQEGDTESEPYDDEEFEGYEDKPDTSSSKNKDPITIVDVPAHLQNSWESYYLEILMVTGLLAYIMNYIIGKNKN

Assay [3] deals with T3, DsRed2-CCDC47_(full)^MYC (human) (UniProt Q96A33).
T3 sequence: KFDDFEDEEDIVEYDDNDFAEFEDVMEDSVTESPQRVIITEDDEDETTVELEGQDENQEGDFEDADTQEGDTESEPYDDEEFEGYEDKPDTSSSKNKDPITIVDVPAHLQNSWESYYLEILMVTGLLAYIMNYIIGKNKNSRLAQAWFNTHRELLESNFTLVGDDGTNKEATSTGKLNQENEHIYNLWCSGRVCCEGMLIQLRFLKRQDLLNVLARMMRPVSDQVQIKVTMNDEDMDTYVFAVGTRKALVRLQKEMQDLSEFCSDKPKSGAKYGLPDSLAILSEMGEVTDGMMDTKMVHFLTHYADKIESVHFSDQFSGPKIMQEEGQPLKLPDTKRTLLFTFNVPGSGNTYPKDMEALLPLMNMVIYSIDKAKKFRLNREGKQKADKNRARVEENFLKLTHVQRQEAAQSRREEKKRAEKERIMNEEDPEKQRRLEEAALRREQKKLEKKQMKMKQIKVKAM

The target in assay [4] is T4, coiled-coil domain-containing protein 47 (CCDC47), endogenous (human (endogenous in HEK293)) (UniProt Q96A33).
T4 sequence: T3 sequence

Assay [5] has as its target T5, DsRed2-CCDC47TM^MYC (human) (UniProt Q96A33).
T5 sequence: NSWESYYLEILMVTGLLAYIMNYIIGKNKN

For another assay, the target named is SPCA2C-BirA*HA (mouse).

SPCA2C^FLAG (mouse): the binding entry in assay [1], in assay [2], in assay [3], in assay [4] and in assay [5] was “binds” each time.

Turning to SPCA2C-BirA*HA (mouse), the binding entry in assay [4] was “binds”.

B1: extended synaptotagmin-1 (ESYT1), endogenous (protein, UniProt Q9BSJ8 1-1104)
chain: MERSPGEGPSPSPMDQPSAPSDPTDQPPAAHAKPDPGSGGQPAGPGAAGEALAVLTSFGRRLLVLIPVYLAGAVGLSVGFVLFGLALYLGWRRVRDEKERSLRAARQLLDDEEQLTAKTLYMSHRELPAWVSFPDVEKAEWLNKIVAQVWPFLGQYMEKLLAETVAPAVRGSNPHLQTFTFTRVELGEKPLRIIGVKVHPGQRKEQILLDLNISYVGDVQIDVEVKKYFCKAGVKGMQLHGVLRVILEPLIGDLPFVGAVSMFFIRRPTLDINWTGMTNLLDIPGLSSLSDTMIMDSIAAFLVLPNRLLVPLVPDLQDVAQLRSPLPRGIIRIHLLAARGLSSKDKYVKGLIEGKSDPYALVRLGTQTFCSRVIDEELNPQWGETYEVMVHEVPGQEIEVEVFDKDPDKDDFLGRMKLDVGKVLQASVLDDWFPLQGGQGQVHLRLEWLSLLSDAEKLEQVLQWNWGVSSRPDPPSAAILVVYLDRAQDLPLKKGNKEPNPMVQLSIQDVTQESKAVYSTNCPVWEEAFRFFLQDPQSQELDVQVKDDSRALTLGALTLPLARLLTAPELILDQWFQLSSSGPNSRLYMKLVMRILYLDSSEICFPTVPGCPGAWDVDSENPQRGSSVDAPPRPCHTTPDSQFGTEHVLRIHVLEAQDLIAKDRFLGGLVKGKSDPYVKLKLAGRSFRSHVVREDLNPRWNEVFEVIVTSVPGQELEVEVFDKDLDKDDFLGRCKVRLTTVLNSGFLDEWLTLEDVPSGRLHLRLERLTPRPTAAELEEVLQVNSLIQTQKSAELAAALLSIYMERAEDLPLRKGTKHLSPYATLTVGDSSHKTKTISQTSAPVWDESASFLIRKPHTESLELQVRGEGTGVLGSLSLPLSELLVADQLCLDRWFTLSSGQGQVLLRAQLGILVSQHSGVEAHSHSYSHSSSSLSEEPELSGGPPHITSSAPELRQRLTHVDSPLEAPAGPLGQVKLTLWYYSEERKLVSIVHGCRSLRQNGRDPPDPYVSLLLLPDKNRGTKRRTSQKKRTLSPEFNERFEWELPLDEAQRRKLDVSVKSNSSFMSRERELLGKVQLDLAETDLSQGVARWYDLMDNKDKGSS
On to B1, for which the binding entry with SPCA2C-BirA*HA (mouse) was “binds weakly”.

For the origin of these results see doi:10.1101/2023.09.13.557610.
